Results are given in words; binding and its absence hold for the method and conditions named.
Biological target: recombinant Phl p 12.0101 (Phleum pratense (Timothy grass)) (UniProt P35079)
Assay: SEC; size exclusion chromatography as the last purification step, in 50 mM Tris-HCl, 150 mM NaCl, pH 7.4; both purified

- binding: no binding
B1: recombinant Phl p 12.0101 (protein, UniProt P35079 1-131)
chain: MSWQTYVDEHLMCEIEGHHLASAAILGHDGTVWAQSADFPQFKPEEITGIMKDFDEPGHLAPTGMFVAGAKYMVIQGEPGRVIRGKKGAGGITIKKTGQALVVGIYDEPMTPGQCNMVVERLGDYLVEQGM
